Data published in patent US20250152659A1, “METHOD FOR PREVENTING OR TREATING PARKINSON'S DISEASE” (Suzhou Mingren Pharmaceutical Biotechnology Co., Ltd., priority 2022, published 2025).
Part of at least one peptide drawing is inferred or uncertain, most often the ends. Where a SMILES comes first, the peptide text is derived from it. [ ]: non-standard residue; d: D form. pS = N[C@@H](COP(=O)(O)O)C(=O)O

Experiments:
[1] = tested on: midbrain dopamine neurons in MPTP-induced PD model mice; assay: Nissl staining of brain slices; assay type: in vivo, C57BL/6 mice; details: JP1 150 mg/kg for 7 days, Day 14
[2] = tested on: dopamine neurons in dense areas of the midbrain substantia nigra in MPTP-treated PD mice; assay: anti-TH IHC staining of brain slices; assay type: in vivo, C57BL/6 mice; details: JP1 150 mg/kg for 7 days, Day 14
[3] = MPTP+JP1 group vs MPTP group, MPTP 30 mg/kg for 5 days, P<0.01
[4] = solvent+JP1 group vs solvent control group

## N=C(N)NCCC[C@H](NC(=O)[C@H](Cc1ccccc1)NC(=O)[C@H](CCCNC(=N)N)NC(=O)[C@H](CC(=O)O)NC(=O)[C@H](COP(=O)(O)O)NC(=O)CNC(=O)[C@@H]1CCCN1C(=O)[C@@H](N)Cc1ccccc1)C(=O)NCC(=O)N[C@@H](CC(=O)O)C(=O)O [JP1] (H-FPG[pS]DRFRGD-OH)
[1]; [3]
  Nissl bodies of dopamine neuron: significantly reversed the MPTP-induced reduction of Nissl bodies
[1]; [4]
  number of Nissl bodies in midbrain neurons: no significant effect
[2]; [3]
  TH expression level: significantly improved the TH level
[2]; [4]
  TH expression level: no significant effect
